Data as given in PubChem BioAssay AID1259254 (NCATS, 2017).

Purpose: 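Finding genes that stop cells copying their DNA twice in one cycle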 (primary screen)
Cell system: human HCT116 colorectal cancer cells
Reagents: single siRNA against human genes
Timing: 3 days
Measured: 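Nuclei stained with Hoechst and imaged; cell-cycle phase assigned by DNA content; G2 share scaled per plate, non-targeting siRNA 0%, GMNN siRNA 100%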
Scale: G2 robust z-score and G2 cells, % of GMNN control: higher = more G2 cells, more excess DNA replication; raw share of cells in G2: higher = larger share of cells with G2 DNA content
Rule for the call: 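Active siRNAs have a G2 robust z of 5 or more median absolute deviations over the median, which in these data means about 38% or higher of GMNN control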
The whole screen tested about 59,000 reagents; shown is a random part of them. Of all reagents, about 1,550 (2.6%) are marked active. 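G2 share is only a proxy for re-replication; each gene was hit by three separate siRNAs, and active genes were retested.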 Raw values are not corrected between plates. Unmarked entries are inactive. Reagents against one gene are numbered here. Not given: the amount of reagent.

| G2 robust z-score | G2 cells, % of GMNN control | raw share of cells in G2 (%) | gene knocked down | reagent |
| --- | --- | --- | --- | --- |
| -0.272 | 1.06 | 5.81 | HCG9 (HLA complex group 9) | 1 |
| 1.58 | 14.1 | 9.81 | HCG9 (HLA complex group 9) | 2 |
| 7.66 (active) | 56.9 | 24.1 | HCG9 (HLA complex group 9) | 3 |
| 0.639 | 7.47 | 6.59 | ARL2BPP3 (ARF like GTPase 2 binding protein pseudogene 3) | 1 |
| -0.518 | -0.68 | 2.97 | ARL2BPP3 (ARF like GTPase 2 binding protein pseudogene 3) | 2 |
| -0.327 | 0.668 | 3.26 | ARL2BPP3 (ARF like GTPase 2 binding protein pseudogene 3) | 3 |
| 4.42 | 34.1 | 19.9 | UTS2 (urotensin 2) | 1 |
| 2.33 | 19.4 | 14.1 | UTS2 (urotensin 2) | 2 |
| -0.792 | -2.6 | 3 | UTS2 (urotensin 2) | 3 |
| 2.36 | 19.6 | 11.4 | BNC1 (basonuclin zinc finger protein 1) | 1 |
| 2.3 | 19.2 | 11.9 | BNC1 (basonuclin zinc finger protein 1) | 2 |
| 1.79 | 15.5 | 9.78 | BNC1 (basonuclin zinc finger protein 1) | 3 |
| -0.23 | 1.35 | 6.32 | CXCR6 (C-X-C motif chemokine receptor 6) | 1 |
| -0.334 | 0.617 | 4.73 | CXCR6 (C-X-C motif chemokine receptor 6) | 2 |
| 1.49 | 13.5 | 7.39 | CXCR6 (C-X-C motif chemokine receptor 6) | 3 |
| -0.202 | 1.55 | 5.3 | COL18A1-AS1 (COL18A1 antisense RNA 1) | 1 |
| 0.0566 | 3.37 | 4.93 | COL18A1-AS1 (COL18A1 antisense RNA 1) | 2 |
| -0.808 | -2.72 | 2.22 | COL18A1-AS1 (COL18A1 antisense RNA 1) | 3 |
| 0.0901 | 3.6 | 4.97 | EGFEM1P (EGF like and EMI domain containing 1, pseudogene) | 1 |
| 0.097 | 3.65 | 6.2 | EGFEM1P (EGF like and EMI domain containing 1, pseudogene) | 2 |
| -0.448 | -0.185 | 3.51 | EGFEM1P (EGF like and EMI domain containing 1, pseudogene) | 3 |
| 0.674 | 7.71 | 5.77 | EGFEM1P (EGF like and EMI domain containing 1, pseudogene) | 4 |
| 0.327 | 5.27 | 4.88 | EGFEM1P (EGF like and EMI domain containing 1, pseudogene) | 5 |
| -0.181 | 1.7 | 4.35 | EGFEM1P (EGF like and EMI domain containing 1, pseudogene) | 6 |
| 0.283 | 4.96 | 6.5 | SPG11 (SPG11 vesicle trafficking associated, spatacsin) | 1 |
| -0.835 | -2.91 | 3.03 | SPG11 (SPG11 vesicle trafficking associated, spatacsin) | 2 |
| -1.01 | -4.15 | 1.24 | SPG11 (SPG11 vesicle trafficking associated, spatacsin) | 3 |
| -1.26 | -5.89 | 1.73 | MTFR2 (mitochondrial fission regulator 2) | 1 |
| -0.692 | -1.9 | 2.76 | MTFR2 (mitochondrial fission regulator 2) | 2 |
| 1.91 | 16.4 | 6.62 | MTFR2 (mitochondrial fission regulator 2) | 3 |
| -0.719 | -2.09 | 2.05 | AHRR (aryl hydrocarbon receptor repressor) | 1 |
| -1.12 | -4.93 | 3.68 | AHRR (aryl hydrocarbon receptor repressor) | 2 |
| -0.637 | -1.51 | 3.16 | AHRR (aryl hydrocarbon receptor repressor) | 3 |
| 2.29 | 19.1 | 12.9 | BRCC3 (BRCA1/BRCA2-containing complex subunit 3) | 1 |
| -0.0257 | 2.79 | 5.86 | BRCC3 (BRCA1/BRCA2-containing complex subunit 3) | 2 |
| 1.74 | 15.2 | 6.71 | BRCC3 (BRCA1/BRCA2-containing complex subunit 3) | 3 |
| -0.16 | 1.84 | 4.34 | C15orf62 (chromosome 15 open reading frame 62) | 1 |
| 0.0989 | 3.66 | 4.59 | C15orf62 (chromosome 15 open reading frame 62) | 2 |
| 0.0797 | 3.53 | 4.17 | C15orf62 (chromosome 15 open reading frame 62) | 3 |
| -0.54 | -0.831 | 2.28 | OR14C36 (olfactory receptor family 14 subfamily C member 36) | 1 |
| 0.143 | 3.97 | 5.67 | OR14C36 (olfactory receptor family 14 subfamily C member 36) | 2 |
| -0.31 | 0.788 | 3.35 | OR14C36 (olfactory receptor family 14 subfamily C member 36) | 3 |
| 0.896 | 9.27 | 9.16 | SCTR (secretin receptor) | 1 |
| 1.86 | 16.1 | 10.1 | SCTR (secretin receptor) | 2 |
| 0.187 | 4.28 | 4.58 | SCTR (secretin receptor) | 3 |
| 0.0999 | 3.67 | 6.42 | RASSF8 (Ras association domain family member 8) | 1 |
| -0.905 | -3.4 | 2.73 | RASSF8 (Ras association domain family member 8) | 2 |
| 3.39 | 26.9 | 13.2 | RASSF8 (Ras association domain family member 8) | 3 |
| -0.759 | -2.37 | 2.34 | ZNF502 (zinc finger protein 502) | 1 |
| -0.175 | 1.73 | 3.69 | ZNF502 (zinc finger protein 502) | 2 |
| -0.929 | -3.57 | 2.27 | ZNF502 (zinc finger protein 502) | 3 |
| 2.19 | 18.4 | 13.9 | GRP (gastrin releasing peptide) | 1 |
| 0.552 | 6.85 | 6.6 | GRP (gastrin releasing peptide) | 2 |
| -0.287 | 0.945 | 3.89 | GRP (gastrin releasing peptide) | 3 |
| -0.681 | -1.83 | 3.36 | RILPL1 (Rab interacting lysosomal protein like 1) | 1 |
| -0.658 | -1.66 | 2.53 | RILPL1 (Rab interacting lysosomal protein like 1) | 2 |
| -0.566 | -1.02 | 3.78 | RILPL1 (Rab interacting lysosomal protein like 1) | 3 |
| 0.526 | 6.67 | 5.99 | TMEM70 (transmembrane protein 70) | 1 |
| 3.42 | 27 | 15.7 | TMEM70 (transmembrane protein 70) | 2 |
| 4.77 | 36.5 | 15.3 | TMEM70 (transmembrane protein 70) | 3 |
| -0.666 | -1.72 | 2.53 | FCHO1 (FCH and mu domain containing endocytic adaptor 1) | 1 |
| -1.14 | -5.06 | 3 | FCHO1 (FCH and mu domain containing endocytic adaptor 1) | 2 |
| 0.867 | 9.07 | 7.88 | FCHO1 (FCH and mu domain containing endocytic adaptor 1) | 3 |
| -0.94 | -3.64 | 2.84 | CRYAA (crystallin alpha A) | 1 |
| 0.0532 | 3.34 | 6.15 | CRYAA (crystallin alpha A) | 2 |
| 1 | 10 | 8.65 | CRYAA (crystallin alpha A) | 3 |
| -0.0424 | 2.67 | 3.77 | CCDC32 (coiled-coil domain containing 32) | 1 |
| 1.99 | 17 | 11.3 | CCDC32 (coiled-coil domain containing 32) | 2 |
| 1.06 | 10.4 | 6.27 | CCDC32 (coiled-coil domain containing 32) | 3 |

Just “G2 robust z-score” (8 entries from above):
SCTR (secretin receptor) #3: 0.187
RASSF8 (Ras association domain family member 8) #1: 0.0999
RASSF8 (Ras association domain family member 8) #2: -0.905
RASSF8 (Ras association domain family member 8) #3: 3.39
ZNF502 (zinc finger protein 502) #1: -0.759
ZNF502 (zinc finger protein 502) #2: -0.175
ZNF502 (zinc finger protein 502) #3: -0.929
GRP (gastrin releasing peptide) #1: 2.19
